According to paper PMC12199436:
These are yes or no findings as the source states them, for the method shown. In cells and extracts the contact can be indirect. Some results given as binding are weak or reduced against the parent protein; the word gives no strength. One block for each substance: values may come before it.

The chains behind the UniProt entries cited, without tags or fusion partners. Residues count along the entry.
UniProt P13020, residues 26-780: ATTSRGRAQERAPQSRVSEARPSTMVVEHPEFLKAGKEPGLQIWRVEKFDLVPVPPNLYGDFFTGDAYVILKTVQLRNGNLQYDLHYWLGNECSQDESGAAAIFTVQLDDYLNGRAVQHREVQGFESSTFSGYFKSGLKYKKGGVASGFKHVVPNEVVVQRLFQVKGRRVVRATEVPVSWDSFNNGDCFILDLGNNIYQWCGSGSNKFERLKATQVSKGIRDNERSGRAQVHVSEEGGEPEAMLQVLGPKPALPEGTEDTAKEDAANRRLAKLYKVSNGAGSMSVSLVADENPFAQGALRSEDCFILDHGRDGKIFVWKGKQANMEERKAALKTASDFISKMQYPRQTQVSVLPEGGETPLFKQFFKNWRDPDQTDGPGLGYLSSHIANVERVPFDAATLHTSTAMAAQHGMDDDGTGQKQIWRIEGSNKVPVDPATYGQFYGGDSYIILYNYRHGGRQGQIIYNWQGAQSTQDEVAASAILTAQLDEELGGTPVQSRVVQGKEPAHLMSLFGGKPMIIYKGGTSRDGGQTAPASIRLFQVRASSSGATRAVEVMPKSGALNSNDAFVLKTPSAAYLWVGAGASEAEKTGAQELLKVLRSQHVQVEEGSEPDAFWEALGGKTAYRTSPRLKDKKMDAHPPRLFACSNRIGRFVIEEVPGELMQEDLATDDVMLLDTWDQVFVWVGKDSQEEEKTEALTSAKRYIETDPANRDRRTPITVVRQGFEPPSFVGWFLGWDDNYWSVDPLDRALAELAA
UniProt P23804: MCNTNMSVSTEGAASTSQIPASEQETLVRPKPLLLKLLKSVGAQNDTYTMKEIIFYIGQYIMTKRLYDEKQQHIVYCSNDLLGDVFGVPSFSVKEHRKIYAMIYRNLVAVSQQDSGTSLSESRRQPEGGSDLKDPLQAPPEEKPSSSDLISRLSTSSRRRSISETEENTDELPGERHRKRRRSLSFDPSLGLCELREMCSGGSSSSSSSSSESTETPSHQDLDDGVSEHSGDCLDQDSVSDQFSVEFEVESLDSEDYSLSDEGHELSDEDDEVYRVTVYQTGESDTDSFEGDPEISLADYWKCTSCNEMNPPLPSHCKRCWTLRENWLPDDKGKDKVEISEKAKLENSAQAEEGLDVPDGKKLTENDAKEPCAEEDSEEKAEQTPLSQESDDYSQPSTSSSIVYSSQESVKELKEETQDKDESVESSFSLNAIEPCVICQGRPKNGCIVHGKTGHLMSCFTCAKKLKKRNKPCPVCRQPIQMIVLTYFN

What was measured:
[1] = biological target: gelsolin (GSN), endogenous in mouse liver (mouse (endogenous in mouse liver)) (UniProt P13020); test: co-IP; endogenous proteins from liver tissue of mice on STD or MCD diet; IP with anti-GSN or anti-MDM2 antibody and protein G agarose beads overnight at 4 °C; IP buffer 20 mM Tris-HCl, 150 mM NaCl, 1 mM EDTA, 1% NP-40; IgG control
FLAG-GSN = FLAG-GSN (UniProt P13020); test: co-IP; 293T cells co-transfected with plasmids for GSN and MDM2, 24-48 h; IP buffer 20 mM Tris-HCl, 150 mM NaCl, 1 mM EDTA, 1% NP-40; protein G agarose beads and antibody overnight at 4 °C
[2] = biological target: MDM2, endogenous in mouse liver (mouse (endogenous in mouse liver)) (UniProt P23804); test: co-IP; endogenous proteins from liver tissue of mice on STD or MCD diet; IP with anti-GSN or anti-MDM2 antibody and protein G agarose beads overnight at 4 °C; IP buffer 20 mM Tris-HCl, 150 mM NaCl, 1 mM EDTA, 1% NP-40; IgG control

binding [1]: binds
Substance: MDM2, endogenous in mouse liver (from UniProt P23804 1-489)

binding (FLAG-GSN): binds
Substance: MYC-MDM2 (from UniProt P23804 1-489)

binding [2]: binds
Substance: gelsolin (GSN), endogenous in mouse liver (from UniProt P13020 26-780)
